Assay results reported in PubChem BioAssay AID2685 (National Center for Advancing Translational Sciences (NCATS), 2010).
The other results are listed elsewhere or left out. These are further read-outs of the screen, such as a control signal, another cell line or another target. No call is given for them. The list favours compounds with an active or inconclusive main result. Potencies come from curve fits of mixed quality, noted in brackets.

Test: qHTS Assay for Lipid Storage Modulators in Drosophila S3 Cells;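 for cell number change: cells counted by Cell Tracker Red CMTPX staining in the red channel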
Conditions: BODIPY lipid droplet fluorescence, 18-24 h; for cell number change: measured here: cell count max response, cells fed with added oleic acid
How it was run: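 Drosophila S3 cells got compounds at several concentrations plus oleic acid (400 uM solution). Laser-scanning cytometry with 488 nm excitation read lipid droplets at 500-530 nm and cells at 575-640 nm. Percent activity was relative to 20 uM Triacsin C.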

[1] = measured here: lipid fluorescence (Fed channel) AC50, cells fed with added oleic acid
[2] = measured here: cell number channel AC50, cells fed with added oleic acid

Row | Compound | cell number change | AC50 [1] | AC50 [2]
1 | Cc1c(-c2ccc(OCc3ccccc3)cc2)nc2ccccc2c1C(=O)O | -1.65% | 23.1 µM [rising, single point] | 
2 | COc1ccc(Nc2ccc(S(=O)(=O)N3CCCCC3)cc2[N+](=O)[O-])cc1 | -59.8% | 20.6 µM [falling, partial curve] | 20.6 µM [falling, partial curve]
3 | c1ccc(CNC2=NCCC2)nc1 | -130% | 29.1 µM [falling, single point] | 29.1 µM [falling, single point]
4 | Cc1cccc(N(C)C(=S)Oc2ccc3ccccc3c2)c1 | 0.304% | 7.31 µM [rising, partial curve] | 
5 | COc1ccc(CNC(=O)[C@H](Cc2c[nH]c3ccccc23)NC(=O)[C@@H]2Cc3ccccc3CN2)cc1 | 21% | 6.51 µM [rising, single point] | 
6 | Cn1c(N)c(C(=O)COC(=O)/C=C/c2cccc(C(F)(F)F)c2)c(=O)n(C)c1=O |  | 0.164 µM [rising, full curve, poor fit] | 
7 | CC(C)(C)NC(=O)C(c1ccncc1)N(C(=O)CNC(=O)c1ccco1)c1ccc(F)cc1 (stereo not given) | -11.5% |  | 
8 | O=C(NC(=S)N1CCCc2ccccc21)c1ccco1 | -10.5% | 1.16 µM [rising, single point] | 
9 | COc1cc(NC2c3ccccc3C(=O)N2c2cc(C)ccn2)cc(OC)c1OC (stereo not given) |  | 1.46 µM [falling, partial curve] | 2.06 µM [rising, partial curve]
10 | CCOc1ccc2c(c1)C(C)=CC(C)(C)N2S(=O)(=O)c1ccc(NC(C)=O)cc1 |  | 5.8 µM [falling, full curve] | 
11 | O=C1CN(c2ccc(Br)cc2)C(=O)N1CC(=O)N1CCCc2ccccc21 | 0.582% |  | 
12 | CC(C)CNc1nc(Oc2ccc(=O)n(-c3ccccc3)n2)nc(N2CCOCC2)n1 | 14.8% |  | 
13 | CC(NC(=O)C(=O)N1CCOCC1)C(c1cccs1)N1CCN(c2ccccc2F)CC1 (stereo not given) | 3.07% |  | 
14 | COc1ccc2nc(NC(=O)CN3C(=O)NC4(CCCC4)C3=O)sc2c1 | 120% |  | 23.1 µM [rising, single point]
15 | CCCOc1ccc(C(=O)OCC(=O)NCCc2ccc(OCC)c(OCC)c2)cc1OC | -24.3% | 0.116 µM [falling, full curve, poor fit] | 0.146 µM [falling, full curve, poor fit]
16 | COc1ccc(NC(=O)c2cc(OC)c(OC)c(OC)c2)cc1S(=O)(=O)N1CCCCC1 | -36.5% | 29.1 µM [falling, single point] | 0.731 µM [falling, full curve]
17 | CCOC(=O)C1CCCN(Cc2ccccc2C)C1 (stereo not given) | -13% | 5.17 µM [falling, full curve] | 
18 | O=c1[nH]cnc2ccccc12 | -14.3% |  | 0.731 µM [falling, single point]
19 | COc1ccc(-c2cc(-c3ccc(OC)cc3)[nH]n2)cc1 | -4.33% |  | 
20 | COc1ccc(C(CC(=O)N2CCCC(C)C2)c2c(O)cc(OC)cc2OC)cc1 (stereo not given) | 16.4% | 18.4 µM [rising, partial curve] | 
21 | O=C(O)c1ccccc1-c1ccccc1C(=O)Nc1nccs1 | 1.6% | 0.00517 µM [rising, full curve, poor fit] | 
22 | Cc1cc(C)c(C(=O)CSC2=NC(N)=C(C#N)C3(CCCCC3)C2C(N)=O)cc1C (stereo not given) | -8.06% | 0.00517 µM [rising, full curve, poor fit] | 1.46 µM [rising, partial curve]
23 | CCN(CC)S(=O)(=O)c1ccc(OC)c(NS(=O)(=O)c2cccc(C(=O)O)c2)c1 | -115% |  | 
24 | COc1cc(C2c3c(-c4cc(C)cc(C)c4O)n[nH]c3C(=O)N2CCCO)cc(OC)c1OC (stereo not given) | -11.8% | 0.731 µM [falling, full curve] | 
25 | CN(C)c1nc2c(c(=O)[nH]c(=O)n2C)n1CCOc1ccccc1 | 21.2% |  | 
26 | CCC(C)(C)NC(=O)CN(C(=O)CNS(=O)(=O)c1ccc(F)cc1)c1ccc2c(c1)OCCO2 | -9.17% | 1.16 µM [falling, single point] | 
27 | Cc1c(CC(=O)N[C@H](C(=O)O)C(C)C)c(=O)oc2cc3c(cc12)CCC(C)(C)O3 |  | 0.146 µM [falling, full curve, poor fit] | 
28 | Cc1cc2n(n1)C(c1cn(-c3ccccc3)nc1C)Nc1ccccc1-2 (stereo not given) | -9.89% | 29.1 µM [rising, single point] | 
29 | O=c1cc(CSc2nnc(C3CC3)n2Cc2ccccc2)nc2sccn12 | 53.9% |  | 13 µM [rising, partial curve]
30 | Cc1ccccc1NC(=O)COC(=O)/C=C/c1cn(-c2ccccc2)nc1-c1cccnc1 | 0.235% | 0.116 µM [falling, full curve, poor fit] | 

From entry 23 to 24, as listed above:
Row | Compound | cell number change | AC50 [1] | AC50 [2]
23 | CCN(CC)S(=O)(=O)c1ccc(OC)c(NS(=O)(=O)c2cccc(C(=O)O)c2)c1 | -115% |  | 
24 | COc1cc(C2c3c(-c4cc(C)cc(C)c4O)n[nH]c3C(=O)N2CCCO)cc(OC)c1OC (stereo not given) | -11.8% | 0.731 µM [falling, full curve] | 
